Results on 21 compounds are retold here after PubChem BioAssay AID280 (DTP/NCI, 2004).

The list shows only some results of the screen, not a fair sample: it gathers tests that were run many times, whatever their T/C, doses with no T/C, and many T/C values between a quarter and a half above the control. Other doses and runs of a compound stand elsewhere. T/C gives the treated animals as a percentage of the vehicle group. Some entries give survivors of the animals treated and no T/C: the source holds a T/C of zero for them, seemingly a mark for toxic or unscored doses. Some doses without a T/C left all or most animals alive at the check, yet need not have been tolerated: survival well below the control is almost never listed, so the zero probably covers shortened survival too. Survivors were counted at the toxicity check, usually on the fifth day, unless a day is given; later deaths do not show. Schedules are NCI's codes, taken here to give the interval after Q, in days (D) or hours (H), and the number of doses after X. Some entries were tested several times; the values are given in rising order. For survival time, the PubChem record calls one and a half times the control and up active, and a quarter to a half above the control has no call in these data; cut-offs in other NCI protocols can differ. Some T/C values are followed by the survivors on the day toxicity was checked, most often the fifth; without a count, all were alive then.

The subject of the experiment is nude mice, LOX melanoma ip, survival T/C. The experiment can be described thus: NCI In Vivo Anticancer Drug Screen. Data for tumor model Human Amelanotic Melanoma (LOX) (intraperitoneal) in NU/NU BALB/C (nude) mice. The following applies: T/C endpoint: median survival time, schedule: Q04DX003 (ip), higher T/C = longer survival. How it is done:
The antitumor activity of compounds was measured in mice bearing transplantable tumors. Survival or tumor size were measured and the results are expressed as the measurement made in the treated group (T) divided by the measurement made in the vehicle treated control group (C). The tumor model used in this assay is Human Amelanotic Melanoma (LOX) (intraperitoneal) in NU/NU BALB/C (nude) mice

[1] abbreviates: dose: 400.0 mg/kg/injection, vehicle: Klucel (hydroxypropylcellulose) (HPC).
[2] abbreviates: dose: 800.0 mg/kg/injection, vehicle: Klucel (hydroxypropylcellulose) (HPC).
[3] abbreviates: dose: 5.0 mg/kg/injection, vehicle: Klucel (hydroxypropylcellulose) (HPC).
The mark [4] stands for this setting: dose: 10.0 mg/kg/injection, vehicle: Klucel (hydroxypropylcellulose) (HPC).
[5] abbreviates: dose: 600.0 mg/kg/injection, vehicle: Klucel (hydroxypropylcellulose) (HPC).
The mark [6] stands for this setting: dose: 1200.0 mg/kg/injection, vehicle: Klucel (hydroxypropylcellulose) (HPC).
Setting [7] is: dose: 600.0 mg/kg/injection, vehicle: saline with Tween-80.
The mark [8] stands for this setting: dose: 300.0 mg/kg/injection, vehicle: Klucel (hydroxypropylcellulose) (HPC).

As to `CC[C@@]1(O)C[C@H](OC2CC(N(C)C)C(OC3CC4OC5CC(=O)C(C)OC5OC4C(C)O3)C(C)O2)c2c(O)c3c(c(O)c2[C@H]1OC1CC(N(C)C)C(O)C(C)O1)C(=O)c1cccc(O)c1C3=O` (stereo partly drawn), the survivor count (dose: 63.0 micrograms/kg/injection, vehicle: saline) was 6 of 6 on day 10; the survivor count (dose: 125.0 micrograms/kg/injection, vehicle: saline) is given as 6 of 6 on day 10; the survivor count (dose: 500.0 micrograms/kg/injection, vehicle: saline) is recorded as 4 of 6 on day 10; the survivor count (dose: 1000.0 micrograms/kg/injection, vehicle: saline) was 2 of 6 on day 10 and 4 of 6 on day 10.

For `C/C(=N\NC(=S)N1CCC1)c1ccccn1`, the survivor count (dose: 50.0 mg/kg/injection, vehicle: other) is given as 3 of 6 on day 10.

For `O=C1C2=C(C(=O)c3cnccc31)C1C=CC2CC1` (stereo not drawn), the survivor count is, setting by setting: (dose: 12.5 mg/kg/injection, vehicle: DMSO) 6 of 6 on day 10; (dose: 50.0 mg/kg/injection, vehicle: DMSO) 6 of 6 on day 10; (dose: 100.0 mg/kg/injection, vehicle: DMSO) 2 of 6 on day 10; (dose: 200.0 mg/kg/injection, vehicle: DMSO) 0 of 6 on day 10.

Regarding `CN(C)CN1C(=O)S/C(=C2\C(=O)N(CN(C)C)c3ccccc32)C1=O`, the survivor count by setting is: under setting [1], 1 of 6 on day 10; under setting [2], 0 of 6 on day 10.

For the compound `[CH3][Sn]([CH3])([Cl])[c]1cc[c]([Sn]([CH3])([CH3])[Cl])cc1`, for the setting “dose: 10.0 mg/kg/injection, vehicle: saline”, the survivor count is recorded as 0 of 6 on day 10.

With `CC(=O)C[n+]1ccc(C)cc1Sc1ccccc1C`, for the setting “dose: 200.0 mg/kg/injection, vehicle: saline with Tween-80”, the survivor count was 3 of 6 on day 10.

For the compound `COc1cc2c(c(OC)c1O)-c1ccc(OC)c(=O)cc1[C@@H](NC(=O)C(F)(F)F)CC2`, the T/C was 139 % of control under setting [3]; 133 % of control under setting [4]; 133 % of control (dose: 20.0 mg/kg/injection, vehicle: Klucel (hydroxypropylcellulose) (HPC)); 126 % of control [4 of 6 alive on day 10] (dose: 40.0 mg/kg/injection, vehicle: Klucel (hydroxypropylcellulose) (HPC)).

As for `CNC(=O)OCc1nc(SC)n(C)c1COC(=O)NC`, the T/C reads like this: (dose: 14.38 mg/kg/injection, vehicle: saline) 126 % of control; (dose: 28.75 mg/kg/injection, vehicle: saline) 145 % of control; (dose: 34.1 mg/kg/injection, vehicle: water) 145 % of control. Besides, the survivor count runs as follows: (dose: 172.4 mg/kg/injection, vehicle: water) 6 of 6 on day 14; (dose: 230.0 mg/kg/injection, vehicle: saline) 1 of 6 on day 10.

In the case of `Oc1cccc2ccccc12`, the survivor count (dose: 300.0 mg/kg/injection, vehicle: water) is reported as 2 of 6 on day 10.

In the case of `COc1cc2c(c3c1c(=O)c1ccccc1n3C)C=CC(C)(C)O2`, the survivor count by setting is: (dose: 100.0 mg/kg/injection, vehicle: Klucel (hydroxypropylcellulose) (HPC)) 6 of 6 on day 10; (dose: 200.0 mg/kg/injection, vehicle: Klucel (hydroxypropylcellulose) (HPC)) 0 of 6 on day 10 and 4 of 6 on day 10; under setting [1], 0 of 6 on day 10.

Regarding `Cc1nc2c(N)cc(Cl)cc2[nH]1`, the survivor count is on record as 1 of 6 on day 10 (dose: 400.0 mg/kg/injection, vehicle: saline with Tween-80) and 0 of 6 on day 10 (dose: 800.0 mg/kg/injection, vehicle: saline with Tween-80).

Take `O=C(NC(Cc1ccc(I)cc1)C(=O)O)c1cccc(Br)c1` (stereo not drawn): the survivor count by setting is: under setting [5], 1 of 6 on day 10; under setting [2], 3 of 6 on day 10; under setting [6], 0 of 6 on day 10.

With `Cc1c2ccccc2c(C)c2c1cc(C(=O)O)c1ccccc12`, the T/C (dose: 50.0 mg/kg/injection, vehicle: sodium bicarbonate) is 129 % of control and the T/C (dose: 100.0 mg/kg/injection, vehicle: sodium bicarbonate) was 128 % of control.

`CN=NN(C)C(=O)NC`: the T/C (dose: 12.5 mg/kg/injection, vehicle: saline) is 131 % of control. Moreover, where the note is “dose: 200.0 mg/kg/injection, vehicle: saline”, the survivor count was 6 of 6 on day 10.

For `c1ccc([Te][Te]c2ccccc2)cc1`, the survivor count reads like this: (dose: 300.0 mg/kg/injection, vehicle: saline with Tween-80) 3 of 6 on day 10; under setting [7], 1 of 6 on day 10.

Regarding `CCN(CC)c1ccc2[nH]c3c(C(N)=O)cc(=O)c(=O)c=3oc2c1`, the T/C (dose: 75.0 mg/kg/injection, vehicle: saline with Tween-80) is 125 % of control. The survivor count reads like this: under setting [7], 0 of 6 on day 10; (dose: 1200.0 mg/kg/injection, vehicle: saline with Tween-80) 0 of 6 on day 10.

With `CCOc1ccc(C(C)c2cc3c(cc2OC)OCO3)cc1` (stereo not drawn), the T/C (dose: 75.0 mg/kg/injection, vehicle: distilled water + Tween-80) is 127 and 130 % of control; the T/C (dose: 150.0 mg/kg/injection, vehicle: distilled water + Tween-80) was 131 % of control. For the same compound, the survivor count (dose: 1200.0 mg/kg/injection, vehicle: distilled water + Tween-80) was 0 of 6 on day 10 and 1 of 6 on day 10.

For `Cc1cc(N/N=C/c2ccccn2)nc2ccccc12`, the survivor count runs as follows: under setting [8], 4 of 6 on day 10; under setting [5], 2 of 6 on day 10; under setting [6], 2 of 6 on day 10.

Regarding `C=CCNC(=O)c1ccccc1SC(C)=O`, the T/C (dose: 150.0 mg/kg/injection, vehicle: saline with Tween-80) was 130 % of control. Moreover, the survivor count under setting [7] is 6 of 6 on day 10.

For the compound `O=NN(CCCl)C(=O)Oc1ccc(OC(=O)N(CCCl)N=O)cc1`, the T/C is 136 % of control under setting [3] and 130 % of control under setting [4]. For the same compound, the survivor count was 0 of 4 on day 10 and 0 of 6 on day 10 (dose: 75.0 mg/kg/injection, vehicle: Klucel (hydroxypropylcellulose) (HPC)); 1 of 6 on day 10 (dose: 80.0 mg/kg/injection, vehicle: Klucel (hydroxypropylcellulose) (HPC)); 0 of 4 on day 10 and 0 of 6 on day 10 (dose: 150.0 mg/kg/injection, vehicle: Klucel (hydroxypropylcellulose) (HPC)); 0 of 4 on day 10 and 0 of 6 on day 10 under setting [8]; 0 of 4 on day 10 and 0 of 6 on day 10 under setting [5]; 0 of 4 on day 10 and 0 of 6 on day 10 under setting [6].

For the compound `CCC(NC(N)=O)C(CC)NC(N)=O` (stereo not drawn), the survivor count was 6 of 6 on day 10 (dose: 12.5 mg/kg/injection, vehicle: saline with Tween-80) and 2 of 6 on day 10 (dose: 50.0 mg/kg/injection, vehicle: saline with Tween-80).
